Assay results taken from US20030180947A1, “Circadian control of stem/progenitor cell self-renewal and differentiation and of clock controlled gene expression” (priority 2001, published 2003).
Results are given in words; binding and its absence hold for the method and conditions named. Some results given as binding are weak or reduced against the parent protein; the word gives no strength. Where a sequence is shown, tags or fusion partners need not be part of it.

Chains of the proteins cited; added tags and fusions are not shown. Lines headed by an entry give the natural chain unless they say otherwise; changes in a name come on top.
UniProt P04386: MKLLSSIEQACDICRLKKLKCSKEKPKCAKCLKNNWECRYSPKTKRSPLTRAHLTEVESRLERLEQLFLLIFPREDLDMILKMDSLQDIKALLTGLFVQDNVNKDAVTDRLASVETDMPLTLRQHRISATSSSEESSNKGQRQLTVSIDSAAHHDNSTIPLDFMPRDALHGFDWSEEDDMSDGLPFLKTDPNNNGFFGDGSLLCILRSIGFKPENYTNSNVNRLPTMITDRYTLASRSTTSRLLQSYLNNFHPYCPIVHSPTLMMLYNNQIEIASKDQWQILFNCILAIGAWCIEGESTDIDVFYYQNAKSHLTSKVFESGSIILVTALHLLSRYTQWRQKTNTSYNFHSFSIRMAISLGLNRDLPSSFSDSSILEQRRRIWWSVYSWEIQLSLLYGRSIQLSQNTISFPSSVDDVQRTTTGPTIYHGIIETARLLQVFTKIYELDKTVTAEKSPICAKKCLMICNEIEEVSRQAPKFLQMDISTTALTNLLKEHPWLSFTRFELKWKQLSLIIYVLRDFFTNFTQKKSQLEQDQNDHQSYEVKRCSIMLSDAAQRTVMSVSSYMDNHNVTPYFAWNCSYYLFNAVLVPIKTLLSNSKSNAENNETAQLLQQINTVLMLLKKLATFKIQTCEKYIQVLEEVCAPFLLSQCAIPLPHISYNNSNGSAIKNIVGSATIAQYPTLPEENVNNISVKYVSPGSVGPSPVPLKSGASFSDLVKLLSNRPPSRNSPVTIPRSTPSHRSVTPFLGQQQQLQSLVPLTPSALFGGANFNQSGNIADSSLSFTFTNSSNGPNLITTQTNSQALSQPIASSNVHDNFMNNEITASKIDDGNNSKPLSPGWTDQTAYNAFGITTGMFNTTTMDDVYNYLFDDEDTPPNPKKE
UniProt Q7TSJ6: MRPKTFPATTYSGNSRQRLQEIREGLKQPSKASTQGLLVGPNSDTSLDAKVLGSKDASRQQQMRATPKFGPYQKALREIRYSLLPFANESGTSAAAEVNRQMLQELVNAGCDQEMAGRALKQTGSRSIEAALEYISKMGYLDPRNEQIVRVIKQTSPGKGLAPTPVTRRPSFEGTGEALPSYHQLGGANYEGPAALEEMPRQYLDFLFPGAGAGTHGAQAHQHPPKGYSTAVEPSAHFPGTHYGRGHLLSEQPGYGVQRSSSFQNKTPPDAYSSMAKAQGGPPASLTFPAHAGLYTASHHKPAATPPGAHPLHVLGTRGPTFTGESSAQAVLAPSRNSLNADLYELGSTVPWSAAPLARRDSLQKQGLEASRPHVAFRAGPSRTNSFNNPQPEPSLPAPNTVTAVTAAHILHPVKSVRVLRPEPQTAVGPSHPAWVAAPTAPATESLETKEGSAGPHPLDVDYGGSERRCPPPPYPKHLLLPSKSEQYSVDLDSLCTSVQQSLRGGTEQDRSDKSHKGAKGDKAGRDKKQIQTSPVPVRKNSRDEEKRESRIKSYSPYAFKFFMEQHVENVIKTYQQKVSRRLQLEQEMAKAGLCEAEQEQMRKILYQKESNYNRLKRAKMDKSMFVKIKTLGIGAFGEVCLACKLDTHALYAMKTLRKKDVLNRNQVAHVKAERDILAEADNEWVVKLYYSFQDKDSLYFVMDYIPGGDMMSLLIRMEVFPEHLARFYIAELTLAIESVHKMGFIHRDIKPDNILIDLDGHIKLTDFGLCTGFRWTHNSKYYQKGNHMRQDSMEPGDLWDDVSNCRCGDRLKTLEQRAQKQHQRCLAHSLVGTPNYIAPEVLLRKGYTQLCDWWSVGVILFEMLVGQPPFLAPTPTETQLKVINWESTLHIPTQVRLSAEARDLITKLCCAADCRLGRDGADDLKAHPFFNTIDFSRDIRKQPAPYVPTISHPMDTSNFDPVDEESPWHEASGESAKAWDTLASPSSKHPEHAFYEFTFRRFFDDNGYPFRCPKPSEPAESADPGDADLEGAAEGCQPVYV

T1: mRBT1 fused to the GAL4 activation domain (pGADT7-mRBT1) (murine) (UniProt Q9ERC3)
T1 sequence (looked up): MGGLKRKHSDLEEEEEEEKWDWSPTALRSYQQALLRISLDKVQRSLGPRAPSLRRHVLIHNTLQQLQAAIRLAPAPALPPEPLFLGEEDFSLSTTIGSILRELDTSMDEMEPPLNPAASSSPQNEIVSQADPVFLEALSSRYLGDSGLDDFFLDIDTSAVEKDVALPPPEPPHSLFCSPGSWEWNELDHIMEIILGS


What was measured:
Experiment in all cases: yeast two-hybrid assay
[1] = molecular target: T1, mRBT1 fused to the GAL4 activation domain (pGADT7-mRBT1) (murine)
[2] = molecular target: mLATS2 fused to the GAL4 DNA binding domain (pGBKT7-mLATS2) (mouse) (UniProt P04386+Q7TSJ6)
[3] = molecular target: mLATS2N373 fused to the GAL4 DNA binding domain (pGBKT7-mLATS2N373) (mouse) (UniProt P04386+Q7TSJ6)

| binding [1] | binding [2] | binding [3] | Molecule |
| --- | --- | --- | --- |
| binds |  |  | mLATS2 fused to the GAL4 DNA binding domain (pGBKT7-mLATS2) (from UniProt P04386 1-147; Q7TSJ6 1-1042) |
| binds |  |  | mLATS2N373 fused to the GAL4 DNA binding domain (pGBKT7-mLATS2N373) (from UniProt P04386 1-147; Q7TSJ6 1-373) |
|  | binds |  | mRBT1 fused to the GAL4 activation domain (pGADT7-mRBT1) (protein, murine, UniProt Q9ERC3 1-197, looked up, not shown: large carriers) MGGLKRKHSDLEEEEEEEKWDWSPTALRSYQQALLRISLDKVQRSLGPRAPSLRRHVLIHNTLQQLQAAIRLAPAPALPPEPLFLGEEDFSLSTTIGSILRELDTSMDEMEPPLNPAASSSPQNEIVSQADPVFLEALSSRYLGDSGLDDFFLDIDTSAVEKDVALPPPEPPHSLFCSPGSWEWNELDHIMEIILGS |
|  | binds | binds | mRBT1N121 fused to the GAL4 activation domain (pGADT7-mRBT1N121) (protein, murine, UniProt Q9ERC3 1-121, looked up, not shown: large carriers) MGGLKRKHSDLEEEEEEEKWDWSPTALRSYQQALLRISLDKVQRSLGPRAPSLRRHVLIHNTLQQLQAAIRLAPAPALPPEPLFLGEEDFSLSTTIGSILRELDTSMDEMEPPLNPAASSS |
